The values that follow come from paper PMC5766157.

Chains of the proteins cited; added tags and fusions are not shown.
UniProt P13864: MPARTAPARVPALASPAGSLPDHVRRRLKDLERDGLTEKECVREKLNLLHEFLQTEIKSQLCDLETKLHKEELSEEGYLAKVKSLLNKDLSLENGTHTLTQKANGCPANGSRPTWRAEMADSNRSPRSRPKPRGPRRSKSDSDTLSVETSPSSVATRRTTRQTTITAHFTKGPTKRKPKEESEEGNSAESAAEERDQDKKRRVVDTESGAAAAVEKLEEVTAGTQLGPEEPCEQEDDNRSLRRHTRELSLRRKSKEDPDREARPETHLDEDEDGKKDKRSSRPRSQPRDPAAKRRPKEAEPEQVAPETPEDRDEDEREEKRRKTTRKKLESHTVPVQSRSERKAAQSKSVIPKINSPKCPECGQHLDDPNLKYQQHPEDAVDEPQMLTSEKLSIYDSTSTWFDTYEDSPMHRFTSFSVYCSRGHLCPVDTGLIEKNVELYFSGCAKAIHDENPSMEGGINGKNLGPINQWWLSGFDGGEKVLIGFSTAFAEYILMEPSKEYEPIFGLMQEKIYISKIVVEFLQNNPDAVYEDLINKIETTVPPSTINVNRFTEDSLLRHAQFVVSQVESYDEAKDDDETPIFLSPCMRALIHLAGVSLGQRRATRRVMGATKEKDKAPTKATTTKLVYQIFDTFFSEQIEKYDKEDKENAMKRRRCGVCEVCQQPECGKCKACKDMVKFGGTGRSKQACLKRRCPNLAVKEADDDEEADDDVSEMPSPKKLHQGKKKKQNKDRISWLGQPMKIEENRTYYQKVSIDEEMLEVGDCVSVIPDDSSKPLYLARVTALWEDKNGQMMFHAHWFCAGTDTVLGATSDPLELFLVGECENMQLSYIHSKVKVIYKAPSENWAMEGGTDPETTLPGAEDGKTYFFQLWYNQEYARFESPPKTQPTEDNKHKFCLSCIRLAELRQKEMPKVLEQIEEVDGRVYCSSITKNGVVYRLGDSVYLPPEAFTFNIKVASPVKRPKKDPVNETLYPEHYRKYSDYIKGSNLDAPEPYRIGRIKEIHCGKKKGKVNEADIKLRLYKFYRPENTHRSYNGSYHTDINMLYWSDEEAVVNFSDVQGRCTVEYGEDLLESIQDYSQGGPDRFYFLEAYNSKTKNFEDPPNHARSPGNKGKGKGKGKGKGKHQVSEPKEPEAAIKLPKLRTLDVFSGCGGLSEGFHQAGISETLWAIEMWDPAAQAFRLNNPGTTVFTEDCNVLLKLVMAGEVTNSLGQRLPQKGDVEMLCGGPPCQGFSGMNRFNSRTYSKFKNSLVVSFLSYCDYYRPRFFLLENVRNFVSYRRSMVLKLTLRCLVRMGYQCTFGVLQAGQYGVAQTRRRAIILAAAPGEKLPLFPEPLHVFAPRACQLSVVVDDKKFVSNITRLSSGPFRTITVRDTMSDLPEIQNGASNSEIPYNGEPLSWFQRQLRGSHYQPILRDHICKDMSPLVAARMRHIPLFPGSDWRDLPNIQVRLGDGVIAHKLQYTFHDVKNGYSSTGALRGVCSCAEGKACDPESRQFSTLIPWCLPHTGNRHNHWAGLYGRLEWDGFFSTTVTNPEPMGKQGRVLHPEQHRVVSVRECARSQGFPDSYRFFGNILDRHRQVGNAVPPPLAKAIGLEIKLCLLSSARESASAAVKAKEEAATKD

This experiment concerns the target T1, epitope-tagged DROSHA from Drosha^Tag/Tag ES cells (mouse (endogenous in ES cells)) (UniProt Q5HZJ0).
T1 sequence: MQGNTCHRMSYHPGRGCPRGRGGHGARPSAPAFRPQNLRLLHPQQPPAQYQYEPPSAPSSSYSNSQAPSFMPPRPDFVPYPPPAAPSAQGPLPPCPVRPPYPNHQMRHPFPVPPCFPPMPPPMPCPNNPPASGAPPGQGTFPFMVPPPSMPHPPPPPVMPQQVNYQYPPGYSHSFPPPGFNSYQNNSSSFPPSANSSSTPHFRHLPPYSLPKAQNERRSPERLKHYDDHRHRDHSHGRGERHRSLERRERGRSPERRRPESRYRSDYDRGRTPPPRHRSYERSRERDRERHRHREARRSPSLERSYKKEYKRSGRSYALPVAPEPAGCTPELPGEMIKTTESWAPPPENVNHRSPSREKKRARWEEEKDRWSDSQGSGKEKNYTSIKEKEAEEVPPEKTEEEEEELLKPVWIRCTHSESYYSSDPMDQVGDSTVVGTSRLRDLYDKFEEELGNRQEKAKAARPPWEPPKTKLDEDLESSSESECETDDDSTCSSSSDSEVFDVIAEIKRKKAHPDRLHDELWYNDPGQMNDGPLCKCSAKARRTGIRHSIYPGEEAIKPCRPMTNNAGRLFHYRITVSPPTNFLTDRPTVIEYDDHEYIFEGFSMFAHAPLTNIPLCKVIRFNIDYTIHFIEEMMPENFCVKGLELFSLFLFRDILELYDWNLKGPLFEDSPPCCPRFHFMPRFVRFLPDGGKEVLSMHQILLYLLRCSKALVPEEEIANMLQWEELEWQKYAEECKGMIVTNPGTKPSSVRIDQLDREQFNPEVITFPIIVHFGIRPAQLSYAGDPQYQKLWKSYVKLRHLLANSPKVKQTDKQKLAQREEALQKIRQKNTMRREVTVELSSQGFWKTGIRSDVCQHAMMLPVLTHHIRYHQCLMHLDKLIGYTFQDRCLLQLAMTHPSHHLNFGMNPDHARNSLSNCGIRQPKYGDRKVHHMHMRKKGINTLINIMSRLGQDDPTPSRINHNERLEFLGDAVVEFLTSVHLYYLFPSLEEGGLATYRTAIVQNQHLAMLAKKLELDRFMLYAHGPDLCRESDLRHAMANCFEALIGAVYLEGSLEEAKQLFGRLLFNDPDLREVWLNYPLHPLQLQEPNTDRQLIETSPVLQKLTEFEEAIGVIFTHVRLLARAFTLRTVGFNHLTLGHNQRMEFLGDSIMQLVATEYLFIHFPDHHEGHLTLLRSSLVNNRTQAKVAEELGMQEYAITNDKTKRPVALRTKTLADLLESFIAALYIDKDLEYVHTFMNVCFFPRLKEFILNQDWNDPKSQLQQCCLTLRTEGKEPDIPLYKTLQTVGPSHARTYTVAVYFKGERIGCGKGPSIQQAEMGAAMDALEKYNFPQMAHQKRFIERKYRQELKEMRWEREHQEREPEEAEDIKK
Description: co-IP; anti-FLAG M2 magnetic beads on sonicated ES cell lysates (20 mM Tris-HCl pH 7.4, 200 mM NaCl, 2.5 mM MgCl2, 0.05% Tween-20), then western blot. (A western blot detects proteins with antibodies after separation by electrophoresis.)

These are yes or no findings as the source states them, for the method shown. In cells and extracts the contact can be indirect. Some results given as binding are weak or reduced against the parent protein; the word gives no strength. Where a sequence is shown, tags or fusion partners need not be part of it.

Consider “DNMT1 (DNA methyltransferase 1), untagged (from UniProt P13864 1-1620) (enzyme)”, for which the binding result is given as “binds”.
